Taken from: PubChem BioAssay AID1053209 (Peter MacCallum Cancer Centre, 2014)
Assay: 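Gene losses that combine with doxorubicin to kill mouse bone cancer cells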 (follow-up of hits). System: mouse primary osteosarcoma cells. Reagents: single siRNA against mouse genes, 25 nM (text also states 40 nM). Duration: about 120 h (48 h before drug, then 72 h with drug). Treatment: doxorubicin 100 nM (about IC30-40), added 48 h after transfection, for 72 h. Read-out: 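ATP-based luminescent viability, with or without doxorubicin, relative to non-targeting control NT1, mean of two replicates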. Reading the numbers: viability with doxorubicin, vs NT1: higher = more viable cells under doxorubicin; viability without drug, vs NT1: higher = more viable cells without drug. Hit rule: 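Active when doxorubicin viability is at most 0.7 of NT1 and drug-free viability lies between 0.7 and 1.1, class LC dox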.
This is an unselected part of about 1,580 reagents. 207 of them (13%) count as active. 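Rows are single siRNAs; four siRNAs per gene were tested, a gene counting as confirmed only when at least two agree.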 Entries without a mark were called inactive. The numbers tell different reagents against one gene apart. Not all columns of the deposit are shown.

no.	target	reagent no.	combined effect class	viability with doxorubicin, vs NT1	viability without drug, vs NT1
1	Rps5	1	low viability with and without drug	0.22	0.29
2	Rps5	2	low viability with and without drug	0.29	0.3
3	Rps5	3	low viability with and without drug	0.26	0.3
4	Rps5	4	low viability with and without drug	0.24	0.46
5	Stap2	1	high viability only with doxorubicin	1.12	1
6	Stap2	2	normal viability with and without drug	0.98	0.98
7	Stap2	3	normal viability with and without drug	0.98	1
8	Stap2	4	low viability only with doxorubicin; normal without drug (active)	0.46	0.88
9	Rhov	1	normal viability with and without drug	1.08	0.98
10	Rhov	2	normal viability with and without drug	1.01	1.02
11	Rhov	3	normal viability with and without drug	1.06	1.02
12	Rhov	4	normal viability with and without drug	1.04	1.07
13	Elp1	1	normal viability with and without drug	1.04	1.08
14	Elp1	2	normal viability with and without drug	1.01	0.8
15	Elp1	3	normal viability with and without drug	0.84	0.82
16	Elp1	4	normal viability with and without drug	0.92	0.96

Next part, starting with the last 2 of the part before.
no.	target	reagent no.	combined effect class	viability with doxorubicin, vs NT1	viability without drug, vs NT1
15	Elp1	3	normal viability with and without drug	0.84	0.82
16	Elp1	4	normal viability with and without drug	0.92	0.96
17	Prkaa2	1	normal viability with and without drug	1	0.9
18	Prkaa2	2	normal viability with and without drug	0.84	0.88
19	Prkaa2	3	normal viability with and without drug	0.98	0.98
20	Prkaa2	4	high viability only with doxorubicin	1.18	1.06
21	Sf3b2	1	low viability only with doxorubicin; normal without drug (active)	0.41	0.79
22	Sf3b2	2	low viability with and without drug	0.26	0.62
23	Sf3b2	3	low viability with and without drug	0.26	0.34
24	Sf3b2	4	low viability with and without drug	0.4	0.6
